Results are given in words; binding and its absence hold for the method and conditions named. Some binding calls cover weakened binding; strength is not graded here.
Target: T1, GHBP-H5 peptide (H5WT)
T1 sequence (peptide, biotinylated in the BIAcore and TRFD formats (position not stated)): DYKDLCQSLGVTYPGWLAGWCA
Experiment: BIAcore, H5 on a streptavidin chip (1100 RU), rGHBP injected at 500 µg/ml

binding: binds
B1: rat growth hormone binding protein (rGHBP) (receptor, UniProt P16310 19-265, looked up)
chain: FPGSGATPATLGKASPVLQRINPSLRESSSGKPRFTKCRSPELETFSCYWTEGDDHNLKVPGSIQLYYARRIAHEWTPEWKECPDYVSAGANSCYFNSSYTSIWIPYCIKLTTNGDLLDEKCFTVDEIVQPDPPIGLNWTLLNISLPGIRGDIQVSWQPPPSADVLKGWIILEYEIQYKEVNETKWKTMSPIWSTSVPLYSLRLDKEHEVRVRSRQRSFEKYSEFSEVLRVTFPQMDTLAACEEDFR

Reference: patent US20060252697A1 (ANTYRA, published 2006)
